Reference: the supplement of paper PMC10849652
The other results are listed elsewhere or left out.

The chains behind the UniProt entries cited, without tags or fusion partners. Where a name states a change or a piece, a line headed by the entry shows the natural chain unless it says otherwise.
UniProt O60563, whole entry, looked up: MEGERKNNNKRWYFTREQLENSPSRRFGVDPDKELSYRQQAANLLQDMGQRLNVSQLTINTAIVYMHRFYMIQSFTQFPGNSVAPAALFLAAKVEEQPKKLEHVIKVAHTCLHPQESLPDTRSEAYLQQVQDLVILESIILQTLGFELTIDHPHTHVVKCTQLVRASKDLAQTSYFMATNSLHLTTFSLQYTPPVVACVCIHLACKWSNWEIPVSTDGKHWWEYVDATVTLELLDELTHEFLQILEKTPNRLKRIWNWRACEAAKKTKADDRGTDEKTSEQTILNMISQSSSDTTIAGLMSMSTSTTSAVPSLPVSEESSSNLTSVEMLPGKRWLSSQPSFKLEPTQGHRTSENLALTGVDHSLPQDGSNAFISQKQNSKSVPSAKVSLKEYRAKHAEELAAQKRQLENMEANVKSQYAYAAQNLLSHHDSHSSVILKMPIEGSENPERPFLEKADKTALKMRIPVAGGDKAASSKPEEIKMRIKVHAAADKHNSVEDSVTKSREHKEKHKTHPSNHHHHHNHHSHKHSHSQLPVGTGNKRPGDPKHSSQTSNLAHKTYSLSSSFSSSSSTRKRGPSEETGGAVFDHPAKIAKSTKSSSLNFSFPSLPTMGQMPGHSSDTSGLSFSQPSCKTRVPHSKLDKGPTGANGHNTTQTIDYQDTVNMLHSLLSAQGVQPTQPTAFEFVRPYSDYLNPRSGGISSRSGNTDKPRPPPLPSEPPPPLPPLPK
UniProt Q9Y3X0: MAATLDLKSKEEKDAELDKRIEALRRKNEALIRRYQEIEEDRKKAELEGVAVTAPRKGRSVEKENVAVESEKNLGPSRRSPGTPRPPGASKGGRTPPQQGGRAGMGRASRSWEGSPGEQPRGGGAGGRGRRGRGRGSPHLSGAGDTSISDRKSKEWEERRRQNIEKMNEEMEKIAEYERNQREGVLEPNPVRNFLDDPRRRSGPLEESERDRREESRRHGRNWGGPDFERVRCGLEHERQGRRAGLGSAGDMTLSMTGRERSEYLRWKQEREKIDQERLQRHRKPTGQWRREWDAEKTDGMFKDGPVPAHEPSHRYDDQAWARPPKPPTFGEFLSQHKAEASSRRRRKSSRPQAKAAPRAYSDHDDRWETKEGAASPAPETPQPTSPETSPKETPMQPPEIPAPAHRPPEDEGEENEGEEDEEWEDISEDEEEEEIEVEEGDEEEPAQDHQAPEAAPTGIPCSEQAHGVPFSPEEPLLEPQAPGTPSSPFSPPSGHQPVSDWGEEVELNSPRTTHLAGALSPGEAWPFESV
UniProt Q4G0I0: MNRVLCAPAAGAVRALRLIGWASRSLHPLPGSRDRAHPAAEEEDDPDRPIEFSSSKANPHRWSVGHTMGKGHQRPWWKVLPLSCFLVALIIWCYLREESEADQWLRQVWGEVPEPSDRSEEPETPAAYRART
UniProt O75909: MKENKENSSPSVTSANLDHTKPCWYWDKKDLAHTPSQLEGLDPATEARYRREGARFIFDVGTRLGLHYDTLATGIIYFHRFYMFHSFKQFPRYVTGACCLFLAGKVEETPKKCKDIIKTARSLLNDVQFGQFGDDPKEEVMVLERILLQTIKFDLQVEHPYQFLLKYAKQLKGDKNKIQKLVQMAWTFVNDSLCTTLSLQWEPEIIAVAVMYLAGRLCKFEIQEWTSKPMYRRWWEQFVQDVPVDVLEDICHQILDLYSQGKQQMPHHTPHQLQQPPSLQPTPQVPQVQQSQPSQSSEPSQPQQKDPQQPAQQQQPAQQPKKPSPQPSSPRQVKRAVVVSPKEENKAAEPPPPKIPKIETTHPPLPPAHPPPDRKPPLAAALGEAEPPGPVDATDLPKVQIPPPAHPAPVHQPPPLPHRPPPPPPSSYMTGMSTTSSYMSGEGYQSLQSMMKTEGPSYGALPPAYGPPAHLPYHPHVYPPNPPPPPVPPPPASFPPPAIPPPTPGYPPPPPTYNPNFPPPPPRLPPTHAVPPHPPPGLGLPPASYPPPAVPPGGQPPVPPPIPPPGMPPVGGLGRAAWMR
UniProt P14209: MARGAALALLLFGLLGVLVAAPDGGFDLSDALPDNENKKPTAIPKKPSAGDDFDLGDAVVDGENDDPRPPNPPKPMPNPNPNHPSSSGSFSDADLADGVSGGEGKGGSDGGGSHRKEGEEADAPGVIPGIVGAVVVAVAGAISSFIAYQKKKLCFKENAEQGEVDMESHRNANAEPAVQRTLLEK
UniProt Q8IWP9: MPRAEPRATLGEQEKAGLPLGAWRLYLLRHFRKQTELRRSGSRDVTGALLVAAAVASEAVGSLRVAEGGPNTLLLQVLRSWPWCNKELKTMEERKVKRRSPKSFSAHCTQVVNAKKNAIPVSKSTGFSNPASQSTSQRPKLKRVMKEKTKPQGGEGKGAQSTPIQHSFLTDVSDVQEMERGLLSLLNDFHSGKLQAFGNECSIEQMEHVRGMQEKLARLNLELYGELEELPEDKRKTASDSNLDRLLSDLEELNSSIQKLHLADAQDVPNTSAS
UniProt P83916, whole entry, looked up: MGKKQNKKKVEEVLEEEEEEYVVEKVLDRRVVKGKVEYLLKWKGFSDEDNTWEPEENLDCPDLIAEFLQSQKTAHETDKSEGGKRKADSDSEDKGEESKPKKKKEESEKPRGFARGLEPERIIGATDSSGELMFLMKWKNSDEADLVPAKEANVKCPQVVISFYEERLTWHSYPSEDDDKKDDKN
UniProt Q8IWY9: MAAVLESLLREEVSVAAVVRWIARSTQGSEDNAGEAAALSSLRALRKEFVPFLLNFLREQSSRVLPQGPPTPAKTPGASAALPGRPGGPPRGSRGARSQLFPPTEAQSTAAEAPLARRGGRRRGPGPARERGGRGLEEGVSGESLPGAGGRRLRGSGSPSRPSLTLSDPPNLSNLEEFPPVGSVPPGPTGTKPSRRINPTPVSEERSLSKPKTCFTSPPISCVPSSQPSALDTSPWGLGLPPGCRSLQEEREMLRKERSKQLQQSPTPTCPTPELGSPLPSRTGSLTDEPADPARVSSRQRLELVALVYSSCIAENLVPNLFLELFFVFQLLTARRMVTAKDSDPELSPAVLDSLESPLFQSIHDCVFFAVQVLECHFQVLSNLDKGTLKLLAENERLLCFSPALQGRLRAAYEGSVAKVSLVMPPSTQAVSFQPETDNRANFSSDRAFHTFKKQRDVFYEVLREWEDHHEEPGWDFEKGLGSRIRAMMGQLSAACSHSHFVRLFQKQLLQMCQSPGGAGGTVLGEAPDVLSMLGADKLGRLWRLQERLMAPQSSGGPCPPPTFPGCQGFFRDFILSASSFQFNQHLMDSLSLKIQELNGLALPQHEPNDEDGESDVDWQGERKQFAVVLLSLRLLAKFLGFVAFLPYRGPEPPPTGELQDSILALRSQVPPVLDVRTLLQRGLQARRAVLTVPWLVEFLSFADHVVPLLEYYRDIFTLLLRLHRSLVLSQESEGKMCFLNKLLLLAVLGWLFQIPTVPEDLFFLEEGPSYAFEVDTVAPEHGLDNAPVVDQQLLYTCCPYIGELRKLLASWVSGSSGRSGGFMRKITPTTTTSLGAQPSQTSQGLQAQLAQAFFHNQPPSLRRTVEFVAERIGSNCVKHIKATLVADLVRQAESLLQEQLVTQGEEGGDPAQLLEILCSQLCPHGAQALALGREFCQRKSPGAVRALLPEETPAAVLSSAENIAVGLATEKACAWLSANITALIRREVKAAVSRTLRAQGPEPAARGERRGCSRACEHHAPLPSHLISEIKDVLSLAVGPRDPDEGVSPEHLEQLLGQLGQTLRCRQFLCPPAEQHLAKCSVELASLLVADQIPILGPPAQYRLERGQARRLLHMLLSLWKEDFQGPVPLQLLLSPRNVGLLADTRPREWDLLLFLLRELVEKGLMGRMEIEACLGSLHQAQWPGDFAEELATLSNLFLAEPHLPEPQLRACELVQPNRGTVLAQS
UniProt P45973, whole entry, looked up: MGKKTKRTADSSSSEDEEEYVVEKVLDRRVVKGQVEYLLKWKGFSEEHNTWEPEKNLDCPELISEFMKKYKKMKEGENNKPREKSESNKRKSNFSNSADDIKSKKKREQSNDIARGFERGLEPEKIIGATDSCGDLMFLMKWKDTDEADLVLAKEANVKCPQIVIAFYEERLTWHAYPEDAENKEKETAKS
UniProt P86791: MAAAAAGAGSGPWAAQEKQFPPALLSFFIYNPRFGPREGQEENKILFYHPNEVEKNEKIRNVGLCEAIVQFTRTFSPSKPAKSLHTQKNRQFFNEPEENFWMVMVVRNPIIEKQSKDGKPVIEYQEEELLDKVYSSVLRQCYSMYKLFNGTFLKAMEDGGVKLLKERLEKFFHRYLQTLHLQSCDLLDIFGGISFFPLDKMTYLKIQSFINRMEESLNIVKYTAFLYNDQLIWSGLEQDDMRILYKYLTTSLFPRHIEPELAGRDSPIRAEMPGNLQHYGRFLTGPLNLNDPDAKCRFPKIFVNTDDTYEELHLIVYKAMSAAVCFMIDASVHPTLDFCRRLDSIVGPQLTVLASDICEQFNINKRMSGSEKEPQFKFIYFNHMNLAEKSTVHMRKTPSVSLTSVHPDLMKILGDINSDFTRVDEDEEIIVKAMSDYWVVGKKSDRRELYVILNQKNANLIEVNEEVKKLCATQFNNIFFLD
UniProt O95810: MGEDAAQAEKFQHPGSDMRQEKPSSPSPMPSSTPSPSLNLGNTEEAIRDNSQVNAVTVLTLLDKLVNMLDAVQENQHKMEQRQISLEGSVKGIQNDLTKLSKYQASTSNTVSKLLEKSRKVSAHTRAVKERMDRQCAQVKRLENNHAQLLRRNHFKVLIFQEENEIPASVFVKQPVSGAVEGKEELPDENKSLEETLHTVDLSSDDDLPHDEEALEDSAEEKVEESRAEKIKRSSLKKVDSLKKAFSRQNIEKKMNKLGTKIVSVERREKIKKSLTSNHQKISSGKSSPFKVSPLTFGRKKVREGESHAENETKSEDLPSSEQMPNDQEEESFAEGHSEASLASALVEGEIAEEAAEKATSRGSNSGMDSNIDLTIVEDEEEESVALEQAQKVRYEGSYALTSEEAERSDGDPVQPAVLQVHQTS
UniProt P19397: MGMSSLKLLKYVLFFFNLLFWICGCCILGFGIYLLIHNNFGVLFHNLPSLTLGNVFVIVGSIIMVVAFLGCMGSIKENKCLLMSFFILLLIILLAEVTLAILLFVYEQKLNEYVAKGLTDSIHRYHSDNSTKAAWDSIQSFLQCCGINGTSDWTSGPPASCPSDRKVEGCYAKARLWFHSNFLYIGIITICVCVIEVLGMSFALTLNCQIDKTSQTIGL
UniProt Q8NHZ8, whole entry, looked up: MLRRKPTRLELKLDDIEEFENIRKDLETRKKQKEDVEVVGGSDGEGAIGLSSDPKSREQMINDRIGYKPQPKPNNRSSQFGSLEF
UniProt P60033: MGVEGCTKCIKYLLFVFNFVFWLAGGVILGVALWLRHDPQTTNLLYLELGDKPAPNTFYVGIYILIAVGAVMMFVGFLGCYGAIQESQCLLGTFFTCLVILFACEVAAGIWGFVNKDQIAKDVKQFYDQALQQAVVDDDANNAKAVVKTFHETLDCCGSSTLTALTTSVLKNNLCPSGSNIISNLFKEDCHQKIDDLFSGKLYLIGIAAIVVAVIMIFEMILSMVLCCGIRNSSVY
UniProt P48509: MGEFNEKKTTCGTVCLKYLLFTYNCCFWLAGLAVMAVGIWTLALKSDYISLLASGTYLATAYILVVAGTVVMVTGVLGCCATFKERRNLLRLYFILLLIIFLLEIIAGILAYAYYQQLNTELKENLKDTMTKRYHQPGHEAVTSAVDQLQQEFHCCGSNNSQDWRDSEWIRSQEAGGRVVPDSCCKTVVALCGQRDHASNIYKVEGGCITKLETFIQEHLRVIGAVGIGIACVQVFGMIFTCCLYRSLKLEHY
UniProt P14635, whole entry, looked up: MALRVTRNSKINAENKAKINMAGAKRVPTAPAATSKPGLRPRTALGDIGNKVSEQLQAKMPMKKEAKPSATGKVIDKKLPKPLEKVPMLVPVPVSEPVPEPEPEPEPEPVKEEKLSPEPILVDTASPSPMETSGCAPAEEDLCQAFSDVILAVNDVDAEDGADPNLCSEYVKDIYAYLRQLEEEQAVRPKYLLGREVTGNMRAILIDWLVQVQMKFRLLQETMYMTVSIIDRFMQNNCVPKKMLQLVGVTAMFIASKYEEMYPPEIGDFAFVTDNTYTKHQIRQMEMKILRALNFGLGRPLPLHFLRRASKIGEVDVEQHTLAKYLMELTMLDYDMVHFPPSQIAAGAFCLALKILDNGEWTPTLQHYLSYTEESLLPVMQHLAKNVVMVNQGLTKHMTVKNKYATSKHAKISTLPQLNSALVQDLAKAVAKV

Columns and labels:
Assay in all cases: log2 fold change, soluble protein after heating vs DMSO (PISA); higher = thermal stabilisation; K562 cells, 10 uM, 30 min; active = over 0.2 and 3.5 SD of the protein, either way, in both replicates (recomputed)
[1] = compound: CC[C@@H]1C(=O)N(C)c2cnc(Nc3ccc(C(=O)NC4CCN(C)CC4)cc3OC)nc2N1C1CCCC1
How it was run: (§1)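 K562 cells at 2×10^6 cells/mL were exposed to 10 μM compound for 30 min, then aliquots were heated for 3 min across 48°C-58°C, pooled, and extracted in PBS containing 0.5% NP-40 at 4°C. The supernatant after 21,000xg for 90 min was taken as soluble protein and measured by TMTpro 16plex LC-MS/MS with channel sums equalised. Thermal stability is reported relative to control samples, with values from duplicates. Fold changes are given on a log2 scale.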

volasertib = compound: CC[C@@H]1C(=O)N(C)c2cnc(Nc3ccc(C(=O)N[C@H]4CC[C@H](N5CCN(CC6CC6)CC5)CC4)cc3OC)nc2N1C(C)C [volasertib]
How it was run: as §1

[2] = compound: CC[C@H](C)N1C=C(C2=C(C=C(C=C21)C3=CN=C(C=C3)N4CCNCC4)C(=O)NCC5=C(C=C(NC5=O)C)C)C
How it was run: as §1

epoxomicin = compound: CC[C@H](C)[C@@H](C(=O)N[C@@H]([C@@H](C)O)C(=O)N[C@@H](CC(C)C)C(=O)[C@]1(CO1)C)NC(=O)[C@H]([C@@H](C)CC)N(C)C(=O)C [epoxomicin]
How it was run: as §1

[3] = compound: CCn1c(C(=O)N(C2CC2)C2CC2)cc2c3c(ncn3C)c(Nc3cc(C)n(C)n3)nc21
How it was run: as §1

[4] = compound: CCn1cc(-c2ccnc3[nH]c(-c4cccc(CN(C)C)c4)cc23)c(-c2ccc(NC(=O)N(C)C)cc2)n1
How it was run: as §1

[5] = compound: CN(C)CC(=O)Nc1ccc2[nH]c(=O)c3ccccc3c2c1
How it was run: as §1

rosiglitazone = compound: CN(CCOC1=CC=C(C=C1)C[C@H]2C(=O)NC(=O)S2)C3=CC=CC=N3 (racemic) [rosiglitazone]
How it was run: as §1

[6] = compound: CN1C2=C(C3=C1C(=O)N(N=C3)CC4=CC(=CC=C4)N)SC(=C2)S(=O)C
How it was run: as §1

[7] = compound: CN1CCC(CNc2ccc3ncc(-c4cccc(OC(F)(F)F)c4)n3n2)CC1
How it was run: as §1

saracatinib = compound: CN1CCN(CCOc2cc(OC3CCOCC3)c3c(Nc4c(Cl)ccc5c4OCO5)ncnc3c2)CC1 [saracatinib]
How it was run: as §1

sotrastaurin = compound: CN1CCN(c2nc(C3=C(c4c[nH]c5ccccc45)C(=O)NC3=O)c3ccccc3n2)CC1 [sotrastaurin]
How it was run: as §1

alvocidib = compound: CN1CC[C@H](c2c(O)cc(O)c3c(=O)cc(-c4ccccc4Cl)oc23)[C@H](O)C1 [alvocidib]
How it was run: as §1

Tubastatin A = compound: CN1CCc2c(c3ccccc3n2Cc2ccc(C(=O)NO)cc2)C1 [Tubastatin A]
How it was run: as §1

[8] = compound: CNC(=O)C1=CC=CC=C1NC2=NC(=NC=C2Cl)NC3=C(C=C(C=C3)N4CCOCC4)OC
How it was run: as §1

defactinib = compound: CNC(=O)c1ccc(Nc2ncc(C(F)(F)F)c(NCc3nccnc3N(C)S(C)(=O)=O)n2)cc1 [defactinib]
How it was run: as §1

rucaparib = compound: CNCc1ccc(-c2[nH]c3cc(F)cc4c3c2CCNC4=O)cc1 [rucaparib]
How it was run: as §1

[9] = compound: CNc1nc(-c2ccc3c(N)n[nH]c3c2)cc(N2C[C@@H](C(=O)NC3CCCCC3)CC[C@H]2C)n1
How it was run: as §1

encorafenib = compound: COC(=O)N[C@@H](C)CNc1nccc(-c2cn(C(C)C)nc2-c2cc(Cl)cc(NS(C)(=O)=O)c2F)n1 [encorafenib]
How it was run: as §1

[10] = compound: COC(=O)[C@H](CCSC)NC(=O)C1=C(C=C(C=C1)NC[C@H](CS)N)C2=CC=CC=C2
How it was run: as §1

Measured: log2 fold change

CBL (UniProt P22681)
inactive: [1] -0.02 | volasertib -0.029 | [2] 0.034 | epoxomicin 0.001 | [3] -0.024 | [4] -0.043 | [5] -0.014 | rosiglitazone 0.014 | [6] -0.02 | [7] -0.026 | saracatinib -0.02 | sotrastaurin 0.014 | alvocidib -0.076 | Tubastatin A -0.01 | [8] -0.021 | defactinib -0.017 | rucaparib -0.011 | [9] -0.031 | encorafenib -0.017 | [10] 0.017

CCNT1 (UniProt O60563)
inactive: [1] 0.023 | volasertib -0.085 | [2] 0.069 | epoxomicin -0.063 | [4] 0.035 | [5] -0.055 | [6] 0.132 | [7] -0.036 | saracatinib -0.005 | sotrastaurin -0.173 | Tubastatin A 0.075 | [8] -0.086 | defactinib -0.213 | rucaparib 0.044 | [9] 0.043 | encorafenib 0.163 | [10] 0.002

CCDC9 (UniProt Q9Y3X0)
inactive: [1] 0.081 | volasertib 0.127 | [2] -0.051 | epoxomicin -0.018 | [4] 0.051 | [5] 0.002 | [6] 0.025 | [7] 0.009 | saracatinib 0.023 | sotrastaurin 0.077 | Tubastatin A -0.046 | [8] -0.038 | defactinib 0.148 | rucaparib 0.116 | [9] -0.031 | encorafenib -0.021 | [10] 0.004

CCSMST1 (UniProt Q4G0I0)
inactive: [1] 0.024 | volasertib 0.024 | [2] -0.022 | epoxomicin -0.048 | [3] 0.076 | [5] 0.03 | rosiglitazone 0.001 | [6] -0.072 | saracatinib 0.079 | sotrastaurin 0.007 | alvocidib -0.002 | Tubastatin A 0.074 | [8] 0.011 | defactinib 0 | rucaparib 0.054 | [9] -0.064 | encorafenib -0.056 | [10] 0.027

CCNK isoform 4 (UniProt O75909)
inactive: [1] 0.099 | volasertib 0.045 | [2] -0.018 | epoxomicin -0.254 | [4] 0.129 | [5] -0.051 | [6] 0.105 | [7] 0.032 | saracatinib -0.072 | sotrastaurin 0.135 | Tubastatin A 0.057 | [8] -0.147 | defactinib 0.043 | rucaparib 0.066 | [9] -0.019 | encorafenib 0.029 | [10] 0.003

CD99 (UniProt P14209)
inactive: [1] 0.148 | volasertib 0.129 | [2] -0.062 | epoxomicin -0.073 | [3] 0.034 | [4] 0.133 | [5] -0.098 | rosiglitazone 0.049 | [7] 0.106 | sotrastaurin 0.064 | alvocidib 0.018 | Tubastatin A 0.112 | [8] -0.01 | defactinib 0.052 | rucaparib -0.068 | encorafenib -0.071 | [10] 0.084

Reprinted from the results shown (two entries):
CCSMST1 (UniProt Q4G0I0)
inactive: [1] 0.024 | volasertib 0.024 | [2] -0.022 | epoxomicin -0.048 | [3] 0.076 | [5] 0.03 | rosiglitazone 0.001 | [6] -0.072 | saracatinib 0.079 | sotrastaurin 0.007 | alvocidib -0.002 | Tubastatin A 0.074 | [8] 0.011 | defactinib 0 | rucaparib 0.054 | [9] -0.064 | encorafenib -0.056 | [10] 0.027

CCNK isoform 4 (UniProt O75909)
inactive: [1] 0.099 | volasertib 0.045 | [2] -0.018 | epoxomicin -0.254 | [4] 0.129 | [5] -0.051 | [6] 0.105 | [7] 0.032 | saracatinib -0.072 | sotrastaurin 0.135 | Tubastatin A 0.057 | [8] -0.147 | defactinib 0.043 | rucaparib 0.066 | [9] -0.019 | encorafenib 0.029 | [10] 0.003

(next part)

CCDC28A (UniProt Q8IWP9)
inactive: [1] -0.032 | volasertib 0.005 | [2] 0.042 | epoxomicin 0.123 | [3] 0.001 | [5] 0.01 | rosiglitazone -0.056 | [6] -0.029 | saracatinib 0.007 | sotrastaurin 0.054 | alvocidib 0.024 | Tubastatin A 0.117 | [8] 0.056 | defactinib -0.347 | rucaparib 0.031 | [9] 0.018 | encorafenib 0.098 | [10] 0.073

CBX1 (UniProt P83916)
inactive: [1] 0.001 | volasertib -0.119 | [2] 0.103 | epoxomicin -0.022 | [4] -0.037 | [5] -0.013 | [6] 0.028 | [7] -0.014 | saracatinib 0.073 | sotrastaurin -0.037 | Tubastatin A 0.035 | [8] -0.018 | defactinib -0.143 | rucaparib -0.01 | [9] -0.02 | encorafenib -0.043 | [10] 0

CDAN1 (UniProt Q8IWY9)
inactive: [1] -0.079 | volasertib -0.15 | [2] -0.041 | epoxomicin 0.014 | [4] -0.047 | [5] -0.058 | [6] -0.022 | [7] -0.001 | saracatinib -0.012 | sotrastaurin -0.03 | Tubastatin A 0.009 | [8] -0.029 | defactinib 0.024 | rucaparib 0.085 | [9] -0.006 | encorafenib 0.005 | [10] 0.112

CBX5 (UniProt P45973)
inactive: [1] -0.033 | volasertib -0.128 | [2] 0.048 | epoxomicin -0.022 | [4] -0.057 | [5] -0.034 | [6] -0.121 | [7] -0.003 | saracatinib -0.04 | sotrastaurin -0.001 | Tubastatin A 0.078 | [8] -0.026 | defactinib -0.205 | rucaparib -0.022 | [9] 0.043 | encorafenib 0.009 | [10] -0.012

CCZ1 (UniProt P86791)
inactive: [1] -0.199 | volasertib -0.113 | [2] -0.005 | epoxomicin 0.013 | [4] 0.028 | [5] -0.002 | [6] -0.002 | saracatinib 0.079 | sotrastaurin -0.003 | Tubastatin A -0.016 | [8] 0.012 | defactinib -0.018 | rucaparib -0.006 | [9] -0.025 | encorafenib -0.01 | [10] -0.019
active: [7] -0.256

CAVIN2 (UniProt O95810)
inactive: [1] -0.004 | volasertib 0.104 | [2] -0.011 | epoxomicin -0.061 | [3] 0.066 | [4] 0.089 | [5] -0.067 | rosiglitazone -0.06 | [6] 0.112 | [7] -0.016 | saracatinib -0.034 | sotrastaurin -0.037 | alvocidib 0.059 | Tubastatin A 0.044 | [8] -0.037 | defactinib 0.158 | rucaparib 0.064 | [9] 0.08 | encorafenib 0.071 | [10] -0.01

CD53 (UniProt P19397)
inactive: [1] 0.183 | volasertib -0.103 | [2] -0.049 | epoxomicin -0.02 | [4] -0.092 | [5] -0.007 | [6] -0.051 | [7] -0.06 | saracatinib -0.22 | sotrastaurin 0.087 | Tubastatin A 0.009 | [8] -0.21 | defactinib -0.069 | rucaparib -0.032 | [9] 0.125 | encorafenib -0.006 | [10] 0.051

CASC3 (UniProt O15234)
active: alvocidib 0.6
inactive: [1] 0.303 | volasertib 0.272 | [2] -0.068 | epoxomicin -0.058 | [4] 0.087 | [5] -0.081 | [6] 0.102 | [7] 0.02 | saracatinib -0.015 | sotrastaurin 0.067 | Tubastatin A -0.06 | [8] 0.021 | defactinib 0.323 | rucaparib 0.158 | [9] -0.126 | encorafenib -0.089 | [10] 0.073

CDC26 (UniProt Q8NHZ8)
inactive: [1] 0.06 | volasertib 0.037 | [2] -0.068 | epoxomicin -0.031 | [4] 0.003 | [5] 0.158 | [6] 0.107 | [7] 0.131 | saracatinib 0.032 | sotrastaurin -0.022 | Tubastatin A 0 | [8] -0.032 | defactinib -0.11 | rucaparib 0.112 | [9] -0.013 | encorafenib -0.051 | [10] -0.234

CD81 (UniProt P60033)
inactive: volasertib 0.193 | [2] -0.06 | epoxomicin 0.013 | [4] -0.226 | [5] 0.098 | [6] -0.139 | [7] 0.145 | saracatinib 0.163 | sotrastaurin 0.103 | Tubastatin A -0.064 | [8] -0.029 | defactinib -0.053 | rucaparib -0.152 | [9] 0.207 | encorafenib 0.199 | [10] 0
active: [1] 0.393

CD151 (UniProt P48509)
inactive: volasertib 0.157 | [2] -0.068 | epoxomicin 0.041 | [4] -0.058 | [5] 0 | [6] -0.095 | [7] 0.248 | saracatinib 0.045 | sotrastaurin 0.116 | Tubastatin A -0.012 | [8] 0.092 | defactinib -0.065 | rucaparib -0.097 | [9] 0.03 | encorafenib 0.031 | [10] 0.001
active: [1] 0.277

CCNB1 (UniProt P14635)
inactive: [1] 0.023 | volasertib 0.026 | [2] -0.027 | epoxomicin 0.083 | [4] -0.004 | [5] 0.012 | [6] -0.043 | [7] -0.032 | saracatinib -0.005 | sotrastaurin 0.02 | Tubastatin A -0.018 | [8] -0.051 | defactinib -0.065 | rucaparib -0.025 | [9] -0.034 | encorafenib -0.002 | [10] 0.035
